PubChem BioAssay AID504784 – Drosophila RNAi Screening Center – 2011
The deposit covers about 17,000 reagents; below is an unselected part of those that have a named target and a result. 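Each column is one replicate's B-score; the combined score over replicates was not deposited, so single values may mislead.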 A plus sign joins genes that one reagent is predicted to hit.

Purpose: 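Genome-wide knock-down for genes giving too much or too little stored lipid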 (primary screen)
Cells: Drosophila Kc167 embryonic cells
Reagent: long dsRNA against Drosophila genes, about 250 ng dsRNA per well
Duration: 4 days
Treatment: cells fed 400 µM oleic acid bound to BSA
Measurement: 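Cells imaged and segmented; ratio of lipid droplet area to nuclear area, log-transformed, then normalised as a B-score over the screen; higher means more stored lipid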
Scale: droplet/nuclear area B-score: higher = more stored lipid (overstorage)

| droplet/nuclear area B-score, replicate 1 | droplet/nuclear area B-score, replicate 2 | droplet/nuclear area B-score, replicate 3 | gene knocked down | dsRNA |
| --- | --- | --- | --- | --- |
| 1.24 | 0.397 | – | CG31269 | DRSC15744 |
| 0.479 | 0.66 | – | CG14286 | DRSC14767 |
| 0.0603 | 0.889 | – | Bug22 | DRSC02842 |
| -0.77 | -1.45 | – | CG13442 | DRSC06402 |
| -1.77 | 0.0489 | – | CG15625 | DRSC00460 |
| -0.034 | -0.983 | – | Ir7f | DRSC18012 |
| -0.546 | -4.07 | – | CG17930 | DRSC15292 |
| 0.0552 | -0.319 | – | Or74a | DRSC11245 |
| 0.168 | -0.0267 | – | Nfs1 | DRSC02154 |
| 1.8 | 3.54 | – | Lcp1 | DRSC07455 |
| -0.511 | 0.686 | – | Hsp60C | DRSC03036 |
| 0.0053 | 1.88 | – | Hsf | DRSC07443 |
| -0.741 | 0.0468 | – | mtDNA-helicase | DRSC02912 |
| 0.109 | 0.353 | – | CG13455 | DRSC10002 |
| 1.24 | 1.62 | – | ATPsynCF6 | DRSC14092 |
| -0.133 | -0.226 | – | CG10035 | DRSC14177 |
| 0.145 | 0.134 | – | Pgant4 | DRSC00717 |
| -0.589 | 0.277 | – | Abca3 | DRSC20546 |
| -2.39 | 2.18 | – | CG6813 | DRSC16122 |
| 2.73 | 0.0236 | – | CG5116 | DRSC15720 |
| -1.63 | 0.12 | – | CG10584 | DRSC11624 |
| 1.21 | – | – | cue | DRSC08248 |

3 of these entries, set out differently.
Hsf [DRSC07443]
- droplet/nuclear area B-score, replicate 1: 0.0053
- droplet/nuclear area B-score, replicate 2: 1.88

mtDNA-helicase [DRSC02912]
- droplet/nuclear area B-score, replicate 1: -0.741
- droplet/nuclear area B-score, replicate 2: 0.0468

CG13455 [DRSC10002]
- droplet/nuclear area B-score, replicate 1: 0.109
- droplet/nuclear area B-score, replicate 2: 0.353

Additional entries:
| droplet/nuclear area B-score, replicate 1 | droplet/nuclear area B-score, replicate 2 | droplet/nuclear area B-score, replicate 3 | gene knocked down | dsRNA |
| --- | --- | --- | --- | --- |
| -3.3 | -1.87 | – | CG8405 | DRSC05599 |
| -0.635 | -0.842 | – | CG8405 | DRSC07166 |
| -1.63 | -1.41 | – | CG14610 + asRNA:CR42738 | DRSC12554 |
| 0.00152 | 0.116 | – | Or33a | DRSC03386 |
| -1.01 | 0.0229 | – | wdp | DRSC04367 |
| -0.933 | -0.107 | – | AspRS | DRSC05914 |
| 0.0487 | 1.53 | – | CG32651 | DRSC18941 |
| -1.27 | 0.0103 | – | Mbs | DRSC09414 |
| 1.92 | 1.26 | -0.683 | Mbs | DRSC10525 |
| -0.43 | -0.855 | 0.00377 | Mbs | DRSC10553 |
| -1.28 | -0.0141 | – | Rpt6R | DRSC15431 |
| 0.697 | -0.907 | – | Hcs | DRSC12070 |
| 0.407 | -0.272 | – | Hcs | DRSC12256 |
